# Experimental data: the supplement of paper PMC8551327
# This is one part of the list. No stated cut-off is given here; in the data, active = 1.25 or more and inactive = the rest. Many values rest on one well or one pass, so single values are uncertain.
# System: Kcc2-LUC knock-in mouse primary cortical neurons (Kcc2 promoter reporter)
# Assay: Kcc2 promoter-driven luciferase activity relative to vehicle control (fold of vehicle (ratio)); higher = stronger Kcc2 promoter activation (Kcc2 expression enhancer)
# Details: 100 nM; 48 h
row,Compound,Kcc2 promoter-driven luciferase activity
1,N#CC(=S)Nc1ccc(F)cc1 [1-Cyano-N-(4-fluorophenyl)methanethioamide],active: 1.26
2,CC(/C=C/C(O)=C1/C(=O)CNC1=O)=C\[C@@H](C)[C@H]1O[C@@]2(C)O[C@H](C(=O)[C@H]3O[C@]32C)[C@@H]1C [Tirandamycin A],inactive: 0.99
3,"Nc1nc(N)c2cc(Sc3cccc(C(F)(F)F)c3)ccc2n1 [2,4-diamino-6-(5-trifluoromethylphenyl)thioquinazoline]",active: 1.28
4,COC1CC(C)C(OC)c2cc(O)cc(c2O)NC(=O)/C(C)=C/C=C\C(C)C(OC(N)=O)/C(C)=C/C(C)C1OC (stereo unspecified) [Macbecin II],inactive: 1.04
5,"CC1C(Oc2c(-c3ccc(O)c(O)c3)oc3c(O)cc(O)cc3c2=O)OC(O)C(O)C1O (stereo unspecified) [4H-1-Benzopyran-4-one,4-dihydroxyphenyl)-6,8-dihdroxy-]",inactive: 0.87
6,"COC1/C=C/OC2(C)Oc3c(C)c(O)c4c(c3C2=O)C(=O)C=C(NC(=O)/C(C)=C\C=C\C(C)C(OC=O)C(C)C(O)C(C)C(OC(C)=O)C1C)C4=O (stereo unspecified) [1. Rifamycin,4-dideoxy-1,4-dihydro-1,4-dioxo-, 21-formate]",inactive: 1.08
